# PubChem BioAssay AID504764 | Drosophila RNAi Screening Center | 2011
# Test: 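Knock-downs that raise or lower a Notch target reporter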 (primary screen)
# System: Drosophila Kc167 cells
# Knock-down reagent: long dsRNA against Drosophila genes
# Time to read-out: about 5 days (4 days dsRNA, then 24 h after transfection)
# Conditions: transfection of constitutively active membrane-tethered Notch lacking the extracellular domain, read 24 h later
# Measured: 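Light from a Notch-responsive E(spl)m3 luciferase reporter under active Notch, with control-promoter and no-Notch reporter wells to normalise; raw counts from paired wells a and b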
# Direction: induced reporter light, run 1, well a and induced reporter light, run 1, well b: higher = more light from the Notch target reporter with active Notch; control promoter light, run 1, well a and control promoter light, run 1, well b: higher = more light from the viral control promoter (cell number, transfection, viability); uninduced reporter light, run 1, well a: higher = more light from the Notch target reporter without active Notch
# Call rule: 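Wells with low control signal or poorly matching duplicates excluded; duplicates averaged; per source plate, z beyond ±2 for induced/control log2 ratio or beyond ±1.8 for induced/uninduced marks a hit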
# Calls: active = modifier hit (raised or lowered Notch signal); inactive = not a hit
# In all, the deposit lists about 22,000 reagents; this is an unselected part of those with a known target gene and a result. In the full data, 403 (1.9%) were called active. 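Unnormalised raw counts per well; ratio z-scores behind the hit calls and whether each hit raises or lowers signal are not deposited.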 The numbers tell different reagents against one gene apart. Names joined by + are all predicted targets of the reagent. Not given: the amount of reagent.
gene knocked down,dsRNA no.,"induced reporter light, run 1, well a","induced reporter light, run 1, well b","control promoter light, run 1, well a","control promoter light, run 1, well b","uninduced reporter light, run 1, well a",call
MKP-4 (MAPK Phosphatase 4),1,1.48e5,1.41e5,1.36e5,1.22e5,13045,active
CG15445,1,71745,81945,46505,42350,5425,inactive
CG2898,1,85030,54560,1.01e5,97485,5730,inactive
5-HT2A (5-hydroxytryptamine (serotonin) receptor 2A),1,1.31e5,1.39e5,1.15e5,1.32e5,10192,inactive
CG12499,1,1.90e5,1.79e5,2.38e5,2.57e5,14670,inactive
Ada2b (transcriptional Adaptor 2b),1,1.30e5,1.14e5,1.18e5,1.18e5,9600,inactive
sala (spalt-adjacent),1,1.03e5,1.26e5,68615,77390,15290,inactive
gcl (germ cell-less),1,1.73e5,1.97e5,1.40e5,1.52e5,16155,inactive
spab (space blanket),1,1.88e5,1.93e5,2.44e5,2.03e5,16335,inactive
Nhe2 (Na[+]/H[+] hydrogen exchanger 2),1,44445,41620,63670,47255,2790,inactive
Nhe2 (Na[+]/H[+] hydrogen exchanger 2),2,32780,23400,14740,20555,1050,inactive
Phae2 (Phaedra 2),1,1.37e5,1.47e5,1.55e5,1.32e5,12485,inactive
CG7906,1,1.16e5,93655,83040,84970,9280,inactive
Tsp47F (Tetraspanin 47F),1,78810,78230,1.33e5,1.10e5,9265,inactive
CG4766,1,1.59e5,1.60e5,2.79e5,2.61e5,12615,inactive
CG10418,1,82175,59910,55635,51735,3640,active
"LeuRS-m (Leucyl-tRNA synthetase, mitochondrial)",1,1.46e5,1.32e5,83105,51690,12832,inactive
CG5565,1,1.27e5,1.18e5,1.13e5,62885,9855,inactive
CG2901,1,2.23e5,1.68e5,3.84e5,3.30e5,15060,inactive
mim (missing-in-metastasis),1,12300,11245,13630,14385,3735,inactive
CG33474,1,2.98e5,3.29e5,4.43e5,4.05e5,25510,inactive
Bug22 (Basal body up regulated gene 22),1,98420,1.30e5,54055,72635,17345,inactive
CG31088,1,1.41e5,1.42e5,1.19e5,1.67e5,10945,inactive
ssp6 (short spindle 6),1,2.11e5,1.76e5,2.04e5,1.73e5,10815,inactive
ssp6 (short spindle 6),2,1.68e5,1.98e5,2.47e5,2.32e5,9920,inactive
Pif1 (Pif1 DNA helicase),1,1.96e5,1.83e5,1.66e5,1.80e5,16745,inactive
CG33635,1,1.22e5,1.12e5,1.57e5,1.93e5,11420,inactive
CG7025,1,1.28e5,1.69e5,2.14e5,1.49e5,8105,inactive
cg (combgap),1,5345,4265,6705,4250,1875,inactive
cpa (capping protein alpha),1,85215,1.16e5,1.26e5,1.57e5,8380,active
CG15880,1,1.31e5,1.52e5,97660,59680,9345,inactive
ChT (Choline transporter),1,1.34e5,1.57e5,2.59e5,2.90e5,11500,active
halo,1,1.10e5,95745,83270,64935,8510,inactive
Tep2 (Thioester-containing protein 2),1,1.74e5,1.66e5,2.00e5,1.96e5,8435,inactive
Tep2 (Thioester-containing protein 2),2,1.93e5,2.02e5,1.84e5,2.29e5,8488,inactive
CG14314,1,1.62e5,1.52e5,1.88e5,1.99e5,11105,inactive
CG18814,1,1.60e5,1.46e5,1.90e5,1.66e5,7290,inactive
CG32269 + CG32270,1,1.19e5,1.14e5,2.19e5,1.49e5,4675,inactive
CG1105,1,1.22e5,1.35e5,81600,71020,10570,inactive
CG11251,1,1.98e5,2.05e5,2.61e5,2.53e5,16210,inactive
CG11889 + CG11891,1,1.44e5,1.46e5,1.74e5,1.83e5,12235,inactive
CG11889 + CG11891,2,1.19e5,1.27e5,1.75e5,1.69e5,11480,inactive
Kr (Kruppel),1,2.65e5,2.75e5,2.02e5,2.56e5,20085,inactive
Doc1 (Dorsocross1),1,2.44e5,2.53e5,2.76e5,2.20e5,10770,inactive
Cyp6a9 (Cytochrome P450 6a9),1,1.01e5,97785,1.35e5,1.27e5,8210,inactive
CG2291,1,2.10e5,2.24e5,2.57e5,2.32e5,19645,inactive
Edg84A (Ecdysone-dependent gene 84A),1,90100,81795,64725,54300,5360,inactive
Or98P (Odorant receptor 98a pseudogene),1,,,,,,inactive
Samuel,1,71095,69325,45960,45105,15210,inactive
Samuel,2,22680,25160,13250,9750,7400,inactive
Samuel,3,1.17e5,1.42e5,67340,1.11e5,14442,inactive

Entries above whose gene name begins with P or p (2):
gene knocked down,dsRNA no.,"induced reporter light, run 1, well a","induced reporter light, run 1, well b","control promoter light, run 1, well a","control promoter light, run 1, well b","uninduced reporter light, run 1, well a",call
Phae2 (Phaedra 2),1,1.37e5,1.47e5,1.55e5,1.32e5,12485,inactive
Pif1 (Pif1 DNA helicase),1,1.96e5,1.83e5,1.66e5,1.80e5,16745,inactive
